Measured values as given in article PMC7819943, “Rice protein-binding microarrays: a tool to detect cis-acting elements near promoter regions in rice”.
This is one part of the list.

Protein sequences, listed by entry. Tags and fused reporters are not part of them.
UniProt Q0JBA9, entry or part of it: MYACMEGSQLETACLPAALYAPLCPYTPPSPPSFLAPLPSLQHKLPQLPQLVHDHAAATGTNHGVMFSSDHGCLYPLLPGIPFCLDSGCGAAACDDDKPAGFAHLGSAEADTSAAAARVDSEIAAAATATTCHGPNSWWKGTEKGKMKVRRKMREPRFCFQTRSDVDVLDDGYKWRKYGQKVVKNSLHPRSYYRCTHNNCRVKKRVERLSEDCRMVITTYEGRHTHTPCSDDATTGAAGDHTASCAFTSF

Target: OsWRKY34 (Oryza sativa, UniProt Q0JBA9 1-250)
Experiment: protein-binding microarray (RPBM); PBS, 2% BSA, 51.3 ng/ul salmon testes DNA, 50 uM zinc acetate, 200 nM TF, 25 C, 1 h; high values mean tight binding
Settings: protein: recombinant; tags: N-terminal polyhistidine and DsRed monomer fusion (pET32a); label: CyDye5-dUTP incorporated in the synthesized complementary strand; 3' TTTTT single-stranded linker to array surface; dsDNA, one strand shown
In short: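 For the binding signal, per-feature fluorescence intensity was read in arbitrary units on an Axon 4000B scanner. Before scanning, a 2% BSA-blocked custom Agilent array made double-stranded with Cy5-dUTP was washed after 1 h at 25 °C with 200 nM protein and 50 µM zinc acetate. The proteins were Ni–NTA-purified transcription factors with N-terminal polyhistidine and DsRed fusions, expressed in E. coli BL21-CodonPlus.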

| Sequence | binding signal |
| --- | --- |
| AGGAATTATATCTCTCTCTTGATTTATTAACACCTTTCTCCGGAGTCACCTAGTGCAG | 8190 fluorescence intensity (a.u.) |
| TCCCATTATTACATCGTCGTTGTGTTCAACTATTGCACTACGGAGTCACCTAGTGCAG | 11200 fluorescence intensity (a.u.) |
| TTTCAGAATACACCATCGAAGCACGAATTTTCTTCGTTCCCGGAGTCACCTAGTGCAG | 8690 fluorescence intensity (a.u.) |
| AAATTGTGCATGCCACCAAGTCTCTAGTATTATCCATCTACGGAGTCACCTAGTGCAG | 8460 fluorescence intensity (a.u.) |
| CTGCGGGGAGGTGTAGGAGGAGGAGGGCGGAGGAGGTGGTCGGAGTCACCTAGTGCAG | 8780 fluorescence intensity (a.u.) |
| CACATCCTGAGGGCAGCAATTGGTTTTTTTTCCCATATTTCGGAGTCACCTAGTGCAG | 11800 fluorescence intensity (a.u.) |
| ACCCTAATCCATCCATGGCGGTTAATACTTCGCGCGCATACGGAGTCACCTAGTGCAG | 9390 fluorescence intensity (a.u.) |
| TACATTTGACCTATACGTACGTGCACTACTATACCAGTCACGGAGTCACCTAGTGCAG | 9800 fluorescence intensity (a.u.) |
| TGCTAGTCTTCTTTCTTGTTTTGTTGTGTTTCTCATTTGTCGGAGTCACCTAGTGCAG | 12800 fluorescence intensity (a.u.) |
| AATATATATTTGTATGGCTCTTTCATTGTATTACCTTCATCGGAGTCACCTAGTGCAG | 11900 fluorescence intensity (a.u.) |
| GAGACACACGCTTCGTACTCTCATCTCAACCTTCAGATTCCGGAGTCACCTAGTGCAG | 9120 fluorescence intensity (a.u.) |
| ACTTTTTTAAACATGTTTGGCCGTTCGTCTTATTCAAAAACGGAGTCACCTAGTGCAG | 9620 fluorescence intensity (a.u.) |
| GCCTGAAAGCCCAATACTTGTTTGTTTGTTTTGGGCCTCTCGGAGTCACCTAGTGCAG | 8280 fluorescence intensity (a.u.) |
| AACGAATTTTTTTTTCATCTCATCGTTCTACATGTTGGGTCGGAGTCACCTAGTGCAG | 9440 fluorescence intensity (a.u.) |
| ATTCCGCTCCCTCCCGTCCACCGCCGCTGCCGCTGCCCCACGGAGTCACCTAGTGCAG | 9270 fluorescence intensity (a.u.) |
| ACTATCCGAAATTTCACTCTAATCTACTTTCGTCCCACATCGGAGTCACCTAGTGCAG | 10000 fluorescence intensity (a.u.) |
| AACGCTATTTATTTTTTAAACATGTTTGATCGTTCGTCTTCGGAGTCACCTAGTGCAG | 10200 fluorescence intensity (a.u.) |
| CTGTTTAGTGGTGCTCCATTTGCAATGTTTGACACTTGATCGGAGTCACCTAGTGCAG | 9410 fluorescence intensity (a.u.) |
| TCAACTCCTCCCTGAGTCTAGTCCCGATCCGCCGTTGACCCGGAGTCACCTAGTGCAG | 13000 fluorescence intensity (a.u.) |
| TTCGCACGGACTATGAAAACACCTCTTATTTTTTATTTTTCGGAGTCACCTAGTGCAG | 8640 fluorescence intensity (a.u.) |
| CTTGCCACATCATTTTCTATTCTAGGTAGCAGCTTATTTACGGAGTCACCTAGTGCAG | 8350 fluorescence intensity (a.u.) |

| Sequence | binding signal |
| --- | --- |
| TGGGAAGTGGGGACCGAGCTCGTGGGTGGAGGATTACACACGGAGTCACCTAGTGCAG | 8940 fluorescence intensity (a.u.) |
| CCGTGCTGATGCTTTTGAGTGGTTTGCTTCGTGCCTCCAGCGGAGTCACCTAGTGCAG | 8540 fluorescence intensity (a.u.) |
| TAAAAAATTTAAAGGGTAGTGGGTCTTTTGGGTTGGAGTGCGGAGTCACCTAGTGCAG | 8690 fluorescence intensity (a.u.) |
| ATGAGTTCCCAACCGCCACTTACATTAAGTACCACACTCCCGGAGTCACCTAGTGCAG | 8660 fluorescence intensity (a.u.) |
| ATTATACCCTTATGTCTTGTTTAGTTCCCAAATTTTTTTTCGGAGTCACCTAGTGCAG | 9000 fluorescence intensity (a.u.) |
| TTTAGATTGGATTTCGTTATGTGTTTTCCCATGTCATTTACGGAGTCACCTAGTGCAG | 10800 fluorescence intensity (a.u.) |
| ATGGATTGCTGCCCCACTTTCAACCCATCTCTACCGTCCGCGGAGTCACCTAGTGCAG | 12100 fluorescence intensity (a.u.) |
| TATAGTTTTTTTCATACGTCATGCATTGTGCTTTCTCTATCGGAGTCACCTAGTGCAG | 8120 fluorescence intensity (a.u.) |
| ATTTCCCGCACTAAAATTTTTCATCCCACATGAAGTATTTCGGAGTCACCTAGTGCAG | 10200 fluorescence intensity (a.u.) |
| ACCATGAAACATGCATTAGGGTGTTATTTGTCCAGTTTCACGGAGTCACCTAGTGCAG | 8880 fluorescence intensity (a.u.) |
| ACTGTGGCTTCCCGTGTCAACGTTTGACTGTCCGTCTTATCGGAGTCACCTAGTGCAG | 14000 fluorescence intensity (a.u.) |
| CACCACGTCCCAGTCGCTACAGTGCTGTCTTCAACCTCTGCGGAGTCACCTAGTGCAG | 9030 fluorescence intensity (a.u.) |
| GACGCGCCCCGCCGCCTCGCCTCGCCTCGCCTCGCCATCCCGGAGTCACCTAGTGCAG | 10400 fluorescence intensity (a.u.) |
| GATCGTCCCATATGCATCCCATTGGCCATAGTGCATACTACGGAGTCACCTAGTGCAG | 10300 fluorescence intensity (a.u.) |
| CCGTTGACATTTTATCTAACGTTTGACCATTCGTCTTATTCGGAGTCACCTAGTGCAG | 15900 fluorescence intensity (a.u.) |
| TAGGTGGTTGTTTTTTTTTTTTACGGAGGAGGCCTCATGACGGAGTCACCTAGTGCAG | 9470 fluorescence intensity (a.u.) |
| TCTGGGCCCTCGCCTTCGAACTCATCGCCGACGACCGCGGCGGAGTCACCTAGTGCAG | 10900 fluorescence intensity (a.u.) |
| GGTTTCTCTTGTTTGAGTCGTAGAATTCCTACATTCTTTCCGGAGTCACCTAGTGCAG | 12200 fluorescence intensity (a.u.) |
| GGGGTGTTGTGTCCTTACTTTGTTTTTCAGTGGCAGGATCCGGAGTCACCTAGTGCAG | 15200 fluorescence intensity (a.u.) |
| TAAAGATAATTTTGCCGGTATTTTGGTACGTTAGTTTTCACGGAGTCACCTAGTGCAG | 8560 fluorescence intensity (a.u.) |
| TCCATGACCAGCCTCACCTTGGCCTCGACCTCCTCTGCCGCGGAGTCACCTAGTGCAG | 8510 fluorescence intensity (a.u.) |

In another format: results already given.
Sequence | binding signal
TAAAAAATTTAAAGGGTAGTGGGTCTTTTGGGTTGGAGTGCGGAGTCACCTAGTGCAG | 8690 fluorescence intensity (a.u.)
ATGAGTTCCCAACCGCCACTTACATTAAGTACCACACTCCCGGAGTCACCTAGTGCAG | 8660 fluorescence intensity (a.u.)
ATTATACCCTTATGTCTTGTTTAGTTCCCAAATTTTTTTTCGGAGTCACCTAGTGCAG | 9000 fluorescence intensity (a.u.)
